Reference: article PMC3206029
No constants are given. Whether binding was seen depends on the method and setting. In cells and extracts the contact can be indirect. Some results given as binding are weak or reduced against the parent protein; the word gives no strength. For part of these data: Sequences can lack the tags named with a protein. Each block holds one binder with its values, some of them ahead of it.

Amino acid sequences for entries named in this document (tags omitted).
UniProt Q14790: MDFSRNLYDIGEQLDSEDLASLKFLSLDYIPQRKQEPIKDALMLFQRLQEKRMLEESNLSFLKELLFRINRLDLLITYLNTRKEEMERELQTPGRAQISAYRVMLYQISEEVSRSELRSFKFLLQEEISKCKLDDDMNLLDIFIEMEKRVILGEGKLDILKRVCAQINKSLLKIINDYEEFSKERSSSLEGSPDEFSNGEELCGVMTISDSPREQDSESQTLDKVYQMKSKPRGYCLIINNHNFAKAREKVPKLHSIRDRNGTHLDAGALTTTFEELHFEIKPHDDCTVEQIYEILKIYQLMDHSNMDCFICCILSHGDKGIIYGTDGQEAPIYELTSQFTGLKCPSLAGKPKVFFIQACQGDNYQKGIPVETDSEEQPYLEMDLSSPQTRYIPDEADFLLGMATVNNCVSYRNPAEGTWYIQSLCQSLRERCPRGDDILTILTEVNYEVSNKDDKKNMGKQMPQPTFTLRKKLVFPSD

Experiments:
[1] = molecular target: caspase 8 (human (endogenous in MIP101, RKO, MiaPaCa and MCF-7 cells)) (UniProt Q14790); assay: co-IP; caspase 8 mutants (DEDIm, PBm, DEDIIm) transiently transfected into MIP/SP cells; co-IP with SPARC
[2] = molecular target: caspase 8 (human (endogenous in MIP101, RKO, MiaPaCa and MCF-7 cells)) (UniProt Q14790); assay: co-IP; as a4, read for rSPARC (added to the cells at 100 ng/mL) displacing Bcl2 from caspase 8; only the binder purified
[3] = molecular target: caspase 8 (human (endogenous in MIP101, RKO, MiaPaCa and MCF-7 cells)) (UniProt Q14790); assay: co-IP; as a6, read for peptide-NT (added to the cells) disrupting the caspase 8-Bcl2 interaction; only the binder purified

- binding [1]: binds
B1: SPARC overexpressed in MIP/SP cells (protein, UniProt P09486 18-303)
chain: APQQEALPDETEVVEETVAEVTEVSVGANPVQVEVGEFDDGAEETEEEVVAENPCQNHHCKHGKVCELDENNTPMCVCQDPTSCPAPIGEFEKVCSNDNKTFDSSCHFFATKCTLEGTKKGHKLHLDYIGPCKYIPPCLDSELTEFPLRMRDWLKNVLVTLYERDEDNNLLTEKQKLRVKKIHENEKRLEAGDHPVELLARDFEKNYNMYIFPVHWQFGQLDQHPIDGYLSHTELAPLRAPLIPMEHCTTRFFETCDLDNDKYIALDEWAGCFGIKQKDIDKDLVI

- binding [2]: binds
B2: Recombinant human SPARC (rSPARC) (protein, UniProt P09486 18-303)
chain: APQQEALPDETEVVEETVAEVTEVSVGANPVQVEVGEFDDGAEETEEEVVAENPCQNHHCKHGKVCELDENNTPMCVCQDPTSCPAPIGEFEKVCSNDNKTFDSSCHFFATKCTLEGTKKGHKLHLDYIGPCKYIPPCLDSELTEFPLRMRDWLKNVLVTLYERDEDNNLLTEKQKLRVKKIHENEKRLEAGDHPVELLARDFEKNYNMYIFPVHWQFGQLDQHPIDGYLSHTELAPLRAPLIPMEHCTTRFFETCDLDNDKYIALDEWAGCFGIKQKDIDKDLVI

- binding [3]: binds
B3: synthetic peptide of the N-terminus of SPARC (peptide-NT), tagged with a TAT peptide (peptide)
peptide: YGRKKRRQRRRAPQQEALPDETEVVEETVAEVTEVSVGANPVQVEVGEFDDGAEETEEEVVA
